## Small-molecule microarray binding calls

Data from the ROBIN nucleic acid binder screens, doi:10.1002/anie.202211358.

Targets (5′ to 3′):
T1: TPP riboswitch RNA three-way junction, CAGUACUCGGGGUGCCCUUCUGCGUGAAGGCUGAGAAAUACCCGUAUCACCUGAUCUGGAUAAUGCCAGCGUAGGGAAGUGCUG. About 160 hits among about 24,000 compounds.
T2: PreQ1 riboswitch RNA pseudoknot, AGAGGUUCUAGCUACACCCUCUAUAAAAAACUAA. From B. subtilis. About 170 hits among about 24,000 compounds.
T3: SAM-II riboswitch RNA pseudoknot, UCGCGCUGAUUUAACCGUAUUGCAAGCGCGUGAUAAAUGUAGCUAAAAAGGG. About 200 hits among about 21,000 compounds.

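Compounds were printed on reactive glass slides in duplicate spots, a dye-labelled oligonucleotide was laid over them, and the fluorescence left after washing was read. For the PreQ1, TPP and SAM-II riboswitches the laboratory earlier reported (doi:10.1038/s41467-019-09493-3) 1 µM RNA, 2 h, and a rule that included a mean Z-score above 3 (spot signal-to-noise against the whole library), a score well above that on a control array, and duplicate spots agreeing (coefficient of variation under 100). The data file gives only the calls; its cut-offs may differ, and compounds hitting several targets are kept. The calls come from the array alone, and fixing a compound to the slide can hide its binding.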
A compound is marked 1 if it was called a hit and 0 if it was screened but was not.
The compounds are a random part of those screened.
A target missing from an entry has no call listed here.
A dash means that no call is listed here.

Compound	T1	T2	T3
CCOC(=O)C1=C(N)OC(C)=C(C(C)=O)C12C(=O)N(C)c1ccccc12 (stereo unspecified)	0	0	0
COc1cccc(-c2cc(C(=O)NC(CCO)c3ccc(C)cc3)[nH]n2)c1 (stereo unspecified)	0	0	0
CC(=O)Nc1ccc(OCCOc2ccc([N+](=O)[O-])cc2)cc1	0	0	0
CCc1ccc(S(=O)(=O)C2CS(=O)(=O)CC2NC2CC2)cc1 (stereo unspecified)	0	0	0
COc1ccccc1C(=O)Oc1ccc(Cl)cc1NC1=NS(=O)(=O)c2ccccc21	0	0	0
COc1ccc(-c2ccc(CNCCOCCO)o2)cc1Cl	0	0	-
COc1ccc(-c2cnc(NCc3ccc(Cl)cc3)n2C)cc1	0	0	0
Cc1ccc2nc(Nc3ccc(Cl)cc3)c3nncn3c2c1	0	0	0
Cc1cccc(NC(=S)Nc2cccc(C)n2)n1	1	0	1
CC(C)CNc1oc(-c2ccc(S(=O)(=O)N3CCOCC3)cc2)nc1C#N	0	0	-
C1CCc2c(c(N3CCOCC3)nc3sc4c(NCCN5CCOCC5)nnnc4c23)C1	0	0	0
CN(C)Cc1ccccc1C(O)c1ccccc1 (stereo unspecified)	0	0	0
CC(O)[C@H]1C(=O)N2C(C(=O)[O-])=C(SC3Cn4ncc[n+]4C3)[C@H](C)[C@H]12 (stereo partly specified)	0	0	0
Cc1nn(CCO)cc1CN1C[C@@H](c2ccc(F)cc2)[C@@H]2[C@H]1C1CCN2CC1	0	0	0
COc1ccc(-c2cc3c(c(OC)c2)OCCN(c2cc(N)ncn2)C3)nn1	0	0	0
CCOC(=O)c1c(C)oc2ncnc(Nc3cccc(CC)c3)c12	0	0	0
COc1ccc(N(CC(O)Cn2c(C)nc3ccccc32)S(=O)(=O)c2ccccc2)cc1 (stereo unspecified)	0	0	0
CN1CCN([C@H]2CCN(Cc3cccnc3N)C[C@H]2CCC(=O)O)CC1	0	0	0
O=C(c1cc(C2CC2)no1)N1C[C@@H](CN2CCCCC2)[C@@H](CO)C1	0	0	0
O=C(NCCO)c1nnc(Cc2ccccc2Cl)o1	0	0	0
CN(C)c1ccc(NC2CC(=O)N(c3ccc(F)cc3)C2=O)cc1 (stereo unspecified)	0	0	0
COc1ccccc1NC(=O)c1nccnc1CO	0	0	0
COc1ccccc1N1CC(c2nc3ccccc3n2CC(O)COc2ccccc2Cl)CC1=O (stereo unspecified)	0	0	-
Nc1nonc1C(=O)N1CCCN(C(=O)Nc2ccc(F)cc2)CC1	0	0	-
O=C1NC(=O)[C@@H](c2cn3c4c(cccc24)CCC3)[C@H]1c1c[nH]c2ccccc12	0	0	0
CC[C@@]1(O)C(=O)OCc2c1cc1n(c2=O)Cc2cc3c(CN(C)C)c(O)ccc3nc2-1	0	0	0
CC(NC(=O)c1cn(CCN2CCNCC2)nn1)c1ccc(F)cc1F (stereo unspecified)	0	0	0
Cc1cc(C)c2c(N)csc2n1	0	0	0
O=C(c1ccc2[nH]c(CO)nc2c1)N1CCN(CCN2CCOCC2)CC1	0	0	0
COc1cc(Cl)c(CN2CC[C@](C)(O)[C@@H](O)C2)c(Cl)c1OC	0	0	0
CC(O)Cn1c(=N)n(Cc2ccccc2)c2ccccc21 (stereo unspecified)	0	0	0
O=C(CSCC(O)Cn1c2ccccc2c2ccccc21)Nc1ccccc1 (stereo unspecified)	0	0	0
CNc1c(C)n(C)n(-c2ccccc2)c1=O	0	0	0
O=C1C(=CNCCCNC2CCCCC2)C(=O)c2ccccc21	0	0	0
CC(=O)Nc1cccc(N2CC(=O)C(c3nc(C)cs3)=C2N)c1	0	0	-
CCOC(=O)c1cnc2nc(-c3ccncc3)nn2c1N	0	0	0
Cc1nn(-c2nc(CC(=O)N(CCO)Cc3ccccc3)cs2)c(C)c1Cl	0	0	-
Cc1ccncc1C(N)=O	0	0	0
OCCN1CCN(C2CCN(C3CCCCCC3)CC2)CC1	0	0	0
CCCC(O)c1nc2ccccc2n1Cc1ccccc1F (stereo unspecified)	0	0	-
CCNC(=O)[C@@H]1C[C@@H](N)CN1S(=O)(=O)c1ccc2[nH]c(=O)[nH]c2c1	0	0	0
C[C@@H]1CN(c2cc(NCCO)ncn2)CC[C@@]1(O)C1CCOCC1	0	0	0
Cc1ccc(C(=O)c2ccc(CC(=O)O)n2C)cc1	0	0	0
CC(=O)c1ccc(NC2c3ccccc3C(=O)N2Cc2ccco2)cc1 (stereo unspecified)	0	0	0
N#CC(=C(N)Sc1ccccc1N)C(C#N)=C(N)Sc1ccccc1N	0	0	0
CN1CCC(=C2c3ccccc3CC(=O)c3sccc32)CC1	0	0	0
COc1cc2c(c3c1c(=O)c1cccc(F)c1n3C)C=CC(C)(C)O2	0	0	0
COCc1n[nH]c(N)c1-c1ccc(OC)c(OC)c1	0	0	0

5 of the entries, repeated:

{"compound": "C1CCc2c(c(N3CCOCC3)nc3sc4c(NCCN5CCOCC5)nnnc4c23)C1", "T1": "0", "T2": "0", "T3": "0"}
{"compound": "CCCC(O)c1nc2ccccc2n1Cc1ccccc1F", "stereo": "stereo unspecified", "T1": "0", "T2": "0"}
{"compound": "Cc1nn(-c2nc(CC(=O)N(CCO)Cc3ccccc3)cs2)c(C)c1Cl", "T1": "0", "T2": "0"}
{"compound": "CC(=O)c1ccc(NC2c3ccccc3C(=O)N2Cc2ccco2)cc1", "stereo": "stereo unspecified", "T1": "0", "T2": "0", "T3": "0"}
{"compound": "O=C1NC(=O)[C@@H](c2cn3c4c(cccc24)CCC3)[C@H]1c1c[nH]c2ccccc12", "T1": "0", "T2": "0", "T3": "0"}